This assay concerns the target HA-tagged TRPM7 (not stated (human or mouse cDNA cloned)) (UniProt Q923J1). As to the kind of experiment: co-IP; 293-TRPM7 cells induced with tetracycline 1 ug/ml for 24 hrs; HA-TRPM7 precipitated with anti-HA-agarose overnight; blot for endogenous hepatocystin.

Protein sequences, listed by entry. Tags and fused reporters are not part of them. Residues count along the entry.
UniProt Q923J1: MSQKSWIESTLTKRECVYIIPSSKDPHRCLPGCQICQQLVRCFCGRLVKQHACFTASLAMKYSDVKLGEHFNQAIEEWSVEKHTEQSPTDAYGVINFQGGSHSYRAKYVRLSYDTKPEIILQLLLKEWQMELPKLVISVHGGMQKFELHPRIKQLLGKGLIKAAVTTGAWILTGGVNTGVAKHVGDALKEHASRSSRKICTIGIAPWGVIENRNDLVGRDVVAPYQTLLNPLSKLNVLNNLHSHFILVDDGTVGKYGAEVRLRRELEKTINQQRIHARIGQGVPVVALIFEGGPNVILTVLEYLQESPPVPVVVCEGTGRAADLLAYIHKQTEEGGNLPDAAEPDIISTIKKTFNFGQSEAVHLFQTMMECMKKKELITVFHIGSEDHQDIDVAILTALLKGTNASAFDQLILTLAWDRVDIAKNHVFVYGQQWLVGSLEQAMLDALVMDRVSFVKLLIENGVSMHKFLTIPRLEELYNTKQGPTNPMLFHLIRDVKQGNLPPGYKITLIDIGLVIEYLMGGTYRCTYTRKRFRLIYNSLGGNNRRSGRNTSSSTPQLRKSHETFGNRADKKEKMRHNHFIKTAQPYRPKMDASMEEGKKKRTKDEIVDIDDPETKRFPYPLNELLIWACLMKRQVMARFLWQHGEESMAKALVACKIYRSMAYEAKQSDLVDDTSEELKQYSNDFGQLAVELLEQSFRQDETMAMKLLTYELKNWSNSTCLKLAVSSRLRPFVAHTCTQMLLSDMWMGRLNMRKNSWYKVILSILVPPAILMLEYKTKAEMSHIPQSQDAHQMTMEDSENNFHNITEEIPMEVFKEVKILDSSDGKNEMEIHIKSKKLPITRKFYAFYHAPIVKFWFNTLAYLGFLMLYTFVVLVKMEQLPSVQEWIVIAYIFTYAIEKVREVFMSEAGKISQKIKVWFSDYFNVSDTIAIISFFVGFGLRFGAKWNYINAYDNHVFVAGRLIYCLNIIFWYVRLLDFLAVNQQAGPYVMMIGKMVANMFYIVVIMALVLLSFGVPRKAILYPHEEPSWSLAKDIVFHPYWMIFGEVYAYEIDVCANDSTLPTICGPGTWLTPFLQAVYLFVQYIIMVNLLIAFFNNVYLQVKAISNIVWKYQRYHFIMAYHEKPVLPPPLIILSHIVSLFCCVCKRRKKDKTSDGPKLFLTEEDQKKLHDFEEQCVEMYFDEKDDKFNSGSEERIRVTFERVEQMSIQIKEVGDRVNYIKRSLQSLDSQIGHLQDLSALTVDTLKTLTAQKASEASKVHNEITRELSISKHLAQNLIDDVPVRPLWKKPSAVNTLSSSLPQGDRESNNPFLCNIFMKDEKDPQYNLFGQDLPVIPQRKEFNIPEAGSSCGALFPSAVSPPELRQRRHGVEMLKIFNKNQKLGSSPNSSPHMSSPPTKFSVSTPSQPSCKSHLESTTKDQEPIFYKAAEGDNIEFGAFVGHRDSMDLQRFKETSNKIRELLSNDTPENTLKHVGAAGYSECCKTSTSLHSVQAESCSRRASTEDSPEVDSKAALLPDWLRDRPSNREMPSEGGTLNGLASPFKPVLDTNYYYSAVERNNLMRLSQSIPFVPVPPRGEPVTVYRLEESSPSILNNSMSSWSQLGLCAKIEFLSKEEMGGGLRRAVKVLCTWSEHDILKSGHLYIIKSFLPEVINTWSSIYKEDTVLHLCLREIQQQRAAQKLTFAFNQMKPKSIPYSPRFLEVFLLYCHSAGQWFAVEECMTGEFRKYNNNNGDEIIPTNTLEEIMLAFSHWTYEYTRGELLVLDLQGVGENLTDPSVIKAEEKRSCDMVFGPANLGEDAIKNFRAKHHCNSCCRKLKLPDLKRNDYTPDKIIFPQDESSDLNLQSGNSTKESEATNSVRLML
UniProt P14314, residues 15-528: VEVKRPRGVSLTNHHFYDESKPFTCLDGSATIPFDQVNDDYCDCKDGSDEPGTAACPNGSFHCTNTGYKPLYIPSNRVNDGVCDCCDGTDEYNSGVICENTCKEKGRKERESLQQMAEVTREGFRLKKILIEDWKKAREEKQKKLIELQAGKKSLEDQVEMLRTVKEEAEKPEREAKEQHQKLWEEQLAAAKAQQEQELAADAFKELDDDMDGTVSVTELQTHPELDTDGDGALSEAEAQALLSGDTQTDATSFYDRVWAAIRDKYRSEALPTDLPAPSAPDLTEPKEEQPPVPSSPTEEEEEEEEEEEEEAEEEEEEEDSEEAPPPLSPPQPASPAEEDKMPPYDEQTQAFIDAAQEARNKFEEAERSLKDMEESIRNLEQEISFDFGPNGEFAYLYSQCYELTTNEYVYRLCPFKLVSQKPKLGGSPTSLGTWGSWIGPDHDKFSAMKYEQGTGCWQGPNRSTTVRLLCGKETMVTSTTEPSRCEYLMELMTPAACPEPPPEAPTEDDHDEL

1 substance from publication PMC4680877 can be followed below.

These are yes or no findings as the source states them, for the method shown. Binding seen in cells or lysates may run through a third protein. Some entries that bind do so weakly or less than the wild type.

Regarding “endogenous hepatocystin (from UniProt P14314 15-528)”, the binding entry is on record as “binds”.
